Measurements taken from PMC7037732, “Synthesis of Combretastatin A-4 and 3′-Aminocombretastatin A-4 derivatives with Aminoacid Containing Pendants and Study of their Interaction with Tubulin and as Downregulators of the VEGF, hTERT and c-Myc Gene Expression” (Molecules, 2020).

Columns and labels:
[1] = test system: A-549 (human pulmonary adenocarcinoma); test: Inhibition of cell proliferation (MTT), A-549; format: cell-based; conditions: IC50 (HEK-293)/IC50 (A-549)
Text: (§1) The ability of the synthetic compounds to inhibit cell proliferation was established by means of their IC50 values towards the tumor cell lines HT-29 (human colon adenocarcinoma), MCF-7 (breast adenocarcinoma) and A-549 (human pulmonary adenocarcinoma), as well as towards the nontumor cell line HEK-293 (human embryonic kidney cells). Results for compounds derived from CA-4 are presented in Table 1, along with the calculated selectivity indexes SIA (for HT-29 cell line), SIB (for MCF-7 cell line) and SIc (for A-549 cell line), obtained by dividing the IC50 values of the nontumor cell line (HEK-293) by those of the corresponding tumor cell line. The higher the SI index, the higher the therapeutic safety margin.
Cell culture media were purchased from Gibco (Grand Island, NY, USA). Fetal bovine serum (FBS) was a product of Harlan-Seralab (Belton, U.K.). Supplements and other chemicals not listed in this section were obtained from Sigma Chemical Co. (St. Louis, MO, USA). Plastics for cell culture were supplied by Thermo Fischer Scientific Inc., Madrid, Spain. All tested compounds were dissolved in DMSO at a concentration of 10 μg/mL and stored at −20 °C until use. HT-29, MCF-7, A-549 and HEK-293 cell lines were maintained in a Dulbecco’s modified Eagle’s medium (DMEM) containing glucose (1 g/L), glutamine (2 mM), penicillin (50 IU/mL), streptomycin (50 μg/mL) and amphotericin B (1.25 μg/mL), supplemented with 10% FBS. Cells from human non-small lung carcinoma (clone A549; ATCC n°: CCL2, MD, USA) were routinely grown at 37 °C in a humidified atmosphere of 5% CO2. Cells were maintained in a standard medium composed of RPMI 1640 (Lonza, Group Ltd., Basel, Switzerland), supplemented with 10% fetal bovine serum (FBS), 2 mM L-glutamine and 1% penicillin and streptomycin (Invitrogen). Cells were free from mycoplasma as determined by MycoAlert tests (Lonza, Group Ltd., Basel, Switzerland). […]

[2] = test system: MCF-7 (breast adenocarcinoma); test: Inhibition of cell proliferation (MTT), MCF-7; format: cell-based, human; conditions: IC50 (HEK-293)/IC50 (MCF-7)
Text: as §1
(§2) Cell culture media were purchased from Gibco (Grand Island, NY, USA). Fetal bovine serum (FBS) was a product of Harlan-Seralab (Belton, U.K.). Supplements and other chemicals not listed in this section were obtained from Sigma Chemical Co. (St. Louis, MO, USA). Plastics for cell culture were supplied by Thermo Fischer Scientific Inc., Madrid, Spain. All tested compounds were dissolved in DMSO at a concentration of 10 μg/mL and stored at −20 °C until use. HT-29, MCF-7, A-549 and HEK-293 cell lines were maintained in a Dulbecco’s modified Eagle’s medium (DMEM) containing glucose (1 g/L), glutamine (2 mM), penicillin (50 IU/mL), streptomycin (50 μg/mL) and amphotericin B (1.25 μg/mL), supplemented with 10% FBS. Cells from human non-small lung carcinoma (clone A549; ATCC n°: CCL2, MD, USA) were routinely grown at 37 °C in a humidified atmosphere of 5% CO2. Cells were maintained in a standard medium composed of RPMI 1640 (Lonza, Group Ltd., Basel, Switzerland), supplemented with 10% fetal bovine serum (FBS), 2 mM L-glutamine and 1% penicillin and streptomycin (Invitrogen). Cells were free from mycoplasma as determined by MycoAlert tests (Lonza, Group Ltd., Basel, Switzerland).
(§3) A total of 5 × 10^3 HT-29, MCF-7 or HEK-293 cells in a total volume of 100 μL of their respective growth media were incubated with serial dilutions of the tested compounds. The 3-(4,5-dimethylthiazol-2-yl)-2,5-diphenyltetrazolium bromide (MTT; Sigma Chemical Co.) dye reduction assay in a 96-well microplate was used, as previously described. […] The resulting formazan was dissolved in 150 μL of 0.04 N HCl/2-propanol and read at 550 nm. All determinations were carried out in triplicate.

[3] = test system: HT-29 (human colon adenocarcinoma); test: Inhibition of cell proliferation (MTT), HT-29; format: cell-based; conditions: IC50 (HEK-293)/IC50 (HT-29)
Text: as §1, §2, §3

SMILES | SIc ([1]; Table 2) | SIB ([2]; Table 2) | SIA ([3]; Table 2) | SIc ([1]; Table 1) | SIB ([2]; Table 1) | SIA ([3]; Table 1) | SIA ([3]; Table 1, listed as 6.24)
COc1ccc(/C=C\c2cc(OC)c(OC)c(OC)c2)cc1N [AmCA-4, 3′-aminocombretastatin A-4] | 0.06 | 0.9 | 0.3 |  |  |  | 
COc1ccc(/C=C\c2cc(OC)c(OC)c(OC)c2)cc1O [CA-4, combretastatin A-4] | 60 |  |  | 58 | 25 | 5.9 | 
CCOC(=O)COc1cc(/C=C\c2cc(OC)c(OC)c(OC)c2)ccc1OC [Compound 1, Ethyl (Z)-2-(2-methoxy-5-(3,4,5-trimethoxystyryl)phenoxy)acetate] |  |  |  | 0.4 | 0.4 |  | 
COc1ccc(/C=C\c2cc(OC)c(OC)c(OC)c2)cc1OCC(=O)O [Compound 2, (Z)-2-(2-Methoxy-5-(3,4,5-trimethoxystyryl)phenoxy)acetic acid] |  |  |  | 0.3 | 1.1 | 0.4 | 
COC(=O)CNC(=O)COc1cc(/C=C\c2cc(OC)c(OC)c(OC)c2)ccc1OC [Compound 3.1] |  |  |  | 0.3 | 1.1 | 0.7 | 
COC(=O)[C@@H](NC(=O)COc1cc(/C=C\c2cc(OC)c(OC)c(OC)c2)ccc1OC)C(C)C [Compound 3.2] |  |  |  | 0.2 | 0.4 | 0.2 | 
COC(=O)[C@H](CC(C)C)NC(=O)COc1cc(/C=C\c2cc(OC)c(OC)c(OC)c2)ccc1OC [Compound 3.3] |  |  |  |  | 0.5 | 0.3 | 
COC(=O)[C@H](Cc1ccccc1)NC(=O)COc1cc(/C=C\c2cc(OC)c(OC)c(OC)c2)ccc1OC [Compound 3.4] |  |  |  | 0.4 | 0.5 | 0.14 | 
COC(=O)[C@@H]1CCCN1C(=O)COc1cc(/C=C\c2cc(OC)c(OC)c(OC)c2)ccc1OC [Compound 3.5] |  |  |  | 0.4 | 0.8 | 0.4 | 
COC(=O)[C@H](CO)NC(=O)COc1cc(/C=C\c2cc(OC)c(OC)c(OC)c2)ccc1OC [Compound 3.6] |  |  |  | 0.4 |  |  | 
COC(=O)[C@@H](NC(=O)COc1cc(/C=C\c2cc(OC)c(OC)c(OC)c2)ccc1OC)C(C)O (stereo partly drawn) [Compound 3.7] |  |  |  | 0.7 | 1.2 | 0.8 | 
COC(=O)[C@H](Cc1ccc(O)cc1)NC(=O)COc1cc(/C=C\c2cc(OC)c(OC)c(OC)c2)ccc1OC [Compound 3.8] |  |  |  | 0.6 | 0.8 | 0.6 | 
COC(=O)[C@H](CCSC)NC(=O)COc1cc(/C=C\c2cc(OC)c(OC)c(OC)c2)ccc1OC [Compound 3.9] |  |  |  | 0.9 | 0.8 | 0.5 | 
COc1ccc(/C=C\c2cc(OC)c(OC)c(OC)c2)cc1OCC(=O)NCC(=O)O [Compound 4.1] |  |  |  | 0.2 | 0.8 |  | 
COc1ccc(/C=C\c2cc(OC)c(OC)c(OC)c2)cc1OCC(=O)N[C@H](C(=O)O)C(C)C [Compound 4.2] |  |  |  | 0.3 | 0.6 | 0.4 | 
COc1ccc(/C=C\c2cc(OC)c(OC)c(OC)c2)cc1OCC(=O)N[C@@H](CC(C)C)C(=O)O [Compound 4.3] |  |  |  | 0.6 | 0.6 | 0.6 | 
COc1ccc(/C=C\c2cc(OC)c(OC)c(OC)c2)cc1OCC(=O)N[C@@H](Cc1ccccc1)C(=O)O [Compound 4.4] |  |  |  | 0.5 | 1.0 | 0.9 | 
COc1ccc(/C=C\c2cc(OC)c(OC)c(OC)c2)cc1OCC(=O)N1CCC[C@H]1C(=O)O [Compound 4.5] |  |  |  | 0.4 | 0.5 |  | 
COc1ccc(/C=C\c2cc(OC)c(OC)c(OC)c2)cc1OCC(=O)N[C@@H](CO)C(=O)O [Compound 4.6] |  |  |  | 0.5 | 0.6 | 0.4 | 

SMILES | SIc ([1]; Table 2) | SIB ([2]; Table 2) | SIA ([3]; Table 2) | SIc ([1]; Table 1) | SIB ([2]; Table 1) | SIA ([3]; Table 1) | SIA ([3]; Table 1, listed as 6.24)
COc1ccc(/C=C\c2cc(OC)c(OC)c(OC)c2)cc1OCC(=O)N[C@H](C(=O)O)C(C)O (stereo partly drawn) [Compound 4.7] |  |  |  | 0.6 | 0.6 | 0.7 | 
COc1ccc(/C=C\c2cc(OC)c(OC)c(OC)c2)cc1OCC(=O)N[C@@H](Cc1ccc(O)cc1)C(=O)O [Compound 4.8] |  |  |  |  | 0.8 | 0.6 | 
COc1ccc(/C=C\c2cc(OC)c(OC)c(OC)c2)cc1OCC(=O)N[C@@H](CCSC)C(=O)O [Compound 4.9] |  |  |  | <0.1 | 3.1 |  | 
COC(=O)[C@H](NC(=O)COc1cc(/C=C\c2cc(OC)c(OC)c(OC)c2)ccc1OC)C(C)C [Compound 5.1] |  |  |  | 0.8 | 0.4 | 0.1 | 
COC(=O)[C@@H](CC(C)C)NC(=O)COc1cc(/C=C\c2cc(OC)c(OC)c(OC)c2)ccc1OC [Compound 5.2] |  |  |  | 0.6 | 0.8 | 0.5 | 
COC(=O)[C@@H](Cc1ccccc1)NC(=O)COc1cc(/C=C\c2cc(OC)c(OC)c(OC)c2)ccc1OC [Compound 5.3] |  |  |  | 0.4 | 0.7 | 0.3 | 
COC(=O)[C@H]1CCCN1C(=O)COc1cc(/C=C\c2cc(OC)c(OC)c(OC)c2)ccc1OC [Compound 5.4] |  |  |  | 0.4 | 0.6 | 0.1 | 
COC(=O)[C@@H](CO)NC(=O)COc1cc(/C=C\c2cc(OC)c(OC)c(OC)c2)ccc1OC [Compound 5.5] |  |  |  | 0.3 |  | 0.8 | 
COc1ccc(/C=C\c2cc(OC)c(OC)c(OC)c2)cc1OCC(=O)N[C@@H](C(=O)O)C(C)C [Compound 6.1] |  |  |  | 0.7 | 0.8 | 0.9 | 
COc1ccc(/C=C\c2cc(OC)c(OC)c(OC)c2)cc1OCC(=O)N[C@H](CC(C)C)C(=O)O [Compound 6.2] |  |  |  | 0.7 | 2.0 |  | 
COc1ccc(/C=C\c2cc(OC)c(OC)c(OC)c2)cc1OCC(=O)N[C@H](Cc1ccccc1)C(=O)O [Compound 6.3] |  |  |  | 0.8 | 1.1 |  | 
COc1ccc(/C=C\c2cc(OC)c(OC)c(OC)c2)cc1OCC(=O)N1CCC[C@@H]1C(=O)O [Compound 6.4] |  |  |  | 0.6 | 1.0 | 1.1 | greater than 1
COc1ccc(/C=C\c2cc(OC)c(OC)c(OC)c2)cc1NC(=O)[C@H](C)NC(=O)OCC1c2ccccc2-c2ccccc21 [Compound 7.2] | 0.01 | 0.8 |  |  |  |  | 
COc1ccc(/C=C\c2cc(OC)c(OC)c(OC)c2)cc1NC(=O)[C@@H](NC(=O)OCC1c2ccccc2-c2ccccc21)C(C)O (stereo partly drawn) [Compound 7.7] | 0.03 | 0.5 |  |  |  |  | 
COc1ccc(/C=C\c2cc(OC)c(OC)c(OC)c2)cc1NC(=O)[C@H](C)N [Compound 8.2] | 0.01 | 0.8 |  |  |  |  | 
COc1ccc(/C=C\c2cc(OC)c(OC)c(OC)c2)cc1NC(=O)[C@@H]1CCCN1 [Compound 8.6] | 2.0 | 0.8 |  |  |  |  | 
COc1ccc(/C=C\c2cc(OC)c(OC)c(OC)c2)cc1NC(=O)[C@@H](N)C(C)O (stereo partly drawn) [Compound 8.7] | 0.03 | 1.1 |  |  |  |  | 
COc1ccc(/C=C\c2cc(OC)c(OC)c(OC)c2)cc1NC(=O)[C@@H](N)Cc1ccc(O)cc1 [Compound 8.8] | 0.01 | 0.5 |  |  |  |  | 
